The source of these data is patent US20160120979A1, “METHOD OF APPLYING A COMPOSITION AND PHARMACEUTICAL COMPOSITION WITH A REGIMEN OF ADMINISTERING IT” (priority 2013, published 2016).

The subject of test [1] is Staphylococcus aureus MU500. Description: Experiment 12: replication on antibiotic agar after pulsed 400 nm irradiation. Particulars: antibiotic 10 mg/l; 400 nm LED pulses 0.02 ms, 1 kHz, 10 minutes; 24 hours incubation. Format: cell-based. As to the method:
(§1) 15′000′000 multi-resistant bacteriae (0.050 ml of a McFarland of 1) were put on 40 mm diameter petri dishes. The petri dishes comprised MH agar with or without antibiotic.
[…]. The LED power during 0.02 ms was measured to be 0.63 W on a Thorlabs power sensor with a surface area of 2.2×2.2 mm representing a power of 13 mW/cm^2.

In test [2] the test system is Staphylococcus aureus MU500. Format: cell-based. The note with it: remaining bacteria of experiment 12 proliferated and treated again. As for the experimental part:
as §1
The LED power during 0.02 ms was measured to be 0.63 W on a Thorlabs power sensor with a surface area of 2.2×2.2 mm representing a power of 13 mW/cm^2.
After the irradiation treatment according to experiment 12, remaining bacteria were allowed to proliferate and then were subject to the treatment according to experiment 12 again in order to test for possible new resistances to the treatment. The values in the following table are designated as in experiment 12: […]

Consider `O=C(O)c1cn(C2CC2)c2cc(N3CCNCC3)c(F)cc2c1=O` [Ciprofloxacin], for which the “F: Staphylococcus aureus MU500 (irradiation), replication” value in test [1] was “NR (No replication)”. The “F: Staphylococcus aureus MU500 (irradiation), replication, second treatment” value in test [2] was “NR (No replication)”.
